{"source": "patent US20210393645A1", "about": "“TREATMENT FOR PROGRESSIVE MULTIPLE SCLEROSIS” (UTI LIMITED PARTNERSHIP, priority 2016, published 2021)", "key": {"human neurons [1]": {"system": "human neurons", "experiment": "Iron (FeSO4) mediated neurotoxicity screening, MAP-2 positive neurons counted", "type": "cell-based", "conditions": "drug 10 μM", "experimental": "Human neurons were isolated from brain tissues of therapeutically aborted 15-20 week old fetuses, in accordance with ethics approval of the University of Calgary ethics committee, after written informed consent of the pregnant donors. Neurons were isolated as previously described (Vecil et al., 2000) brain specimens were washed in phosphate buffered saline (PBS) to remove blood, followed by removal of meninges. […] Thereafter, the digestion was stopped by addition of 4 ml fetal calf serum (FCS). […] Cells were cultured in feeding medium of minimal essential medium (MEM) supplemented with 10% fetal bovine serum (FBS), 1 μM sodium pyruvate, 10 μM glutamine, 1× non-essential amino acids, 0.1% dextrose and 1% penicillin/streptomycin (all culture supplements from Invitrogen, Burlington, Canada). […] For experiments, the neuron-enriched cultures were retrypsinized and cells were plated in poly-L-ornithine pre-coated 96-well plates at a density of 100,000 cells/well in 100 μl of the complete medium supplemented with cytosine arabinoside. […] All conditions were performed in quadruplicates. […]\nImages were taken using the automated ImageXpress® imaging system (Molecular Devices, Sunnyvale, Calif.) through a 10x objective microscope lens, displaying 4 or 9 sites per well. […] Cells were defined according to fluorescence intensity and size at different wavelengths. […]"}, "human neurons [2]": {"system": "human neurons", "experiment": "Mitochondrial damage to neurons induced by rotenone", "type": "cell-based", "conditions": "rotenone 10 μM, drug 10 μM", "experimental": "Human neurons were isolated from brain tissues of therapeutically aborted 15-20 week old fetuses, in accordance with ethics approval of the University of Calgary ethics committee, after written informed consent of the pregnant donors. Neurons were isolated as previously described (Vecil et al., 2000) brain specimens were washed in phosphate buffered saline (PBS) to remove blood, followed by removal of meninges. […] Thereafter, the digestion was stopped by addition of 4 ml fetal calf serum (FCS). The solution was filtered through a 132 μm filter and centrifuged (three times, 1,200 rpm, 10 min). Cells were cultured in feeding medium of minimal essential medium (MEM) supplemented with 10% fetal bovine serum (FBS), 1 μM sodium pyruvate, 10 μM glutamine, 1× non-essential amino acids, 0.1% dextrose and 1% penicillin/streptomycin (all culture supplements from Invitrogen, Burlington, Canada). […] For experiments, the neuron-enriched cultures were retrypsinized and cells were plated in poly-L-ornithine pre-coated 96-well plates at a density of 100,000 cells/well in 100 μl of the complete medium supplemented with cytosine arabinoside. […] All conditions were performed in quadruplicates. A day later cells were fixed using 4% paraformaldehyde (PFA) and stored in PBS in 4° C. […]"}, "[3]": {"experiment": "Hydroxyl radical antioxidant capacity (HORAC) assay", "type": "biochemical", "conditions": "vs 12.5 μM gallic acid (=1), 60 min", "experimental": "In this assay, hydroxyl radicals generated by a Co(II)-mediated Fenton-like reaction oxidize fluorescein causing loss of fluorescence (Ou et al., J Argricultural Food Chemistry 50:2772-2777, 2002). The presence of an anti-oxidant reduces the loss of fluorescence and this can be monitored every 5 min over a period of 60 min with a Spectra Max Gemini XS plate reader (Molecular Devices, Sunnyvale, Calif., USA) and the software SoftMax Pro version 5. For monitoring fluorescence, we used an excitation wavelength of λ=485 nm and an emission wavelength of λ=520 nm.\nThe biochemical cell free hydroxyl radical antioxidant capacity (HORAC) assay investigates the prevention of hydroxyl radical mediated oxidation of to fluorescein in comparison to the strong anti-oxidant gallic acid. The generation of hydroxyl radicals by a cobalt-driven Fenton-like reaction oxidizes fluorescein with progressive loss of fluorescence. The presence of an anti-oxidant reduces the loss of fluorescence over time.\nWe compared the area under the curve of test compounds to that elicited by gallic acid to obtain the gallic acid equivalent (GAE)."}}, "note": "Entries after “also recorded” stand apart in the source; their conditions may differ. At least one compound was matched to its structure with a doubt left.", "data": [{"smiles": "CN1CCN(C2=Nc3cc(Cl)ccc3Nc3ccccc32)CC1", "note": "[CLOZAPINE]", "values": [{"measurement": "protection from FeSO4-mediated neurotoxicity (in words)", "setting": "human neurons [1]", "value": "strong protection"}, {"measurement": "neurotoxicity by rotenone (mitochondrial damage)", "setting": "human neurons [2]", "value": "reduced neurotoxicity; also recorded: active against damage to the mitochondrial respiratory chain"}, {"measurement": "mean HORAC-GAE (gallic acid equivalents)", "setting": "[3]", "value": 4.6}]}]}
